Results: patent US20260008995A1, “ISOLATED […], COMPOSITIONS COMPRISING THE SAME, AND USES THEREOF” (MOON (GUANGZHOU) BIOTECH CO., LTD., priority 2023, published 2026)
At least one structure is not confirmed: it was looked up by name or label, or the drawing left a doubt.

Tests used:
Assay in all cases: antibiotic susceptibility testing, disk diffusion test
Type in all cases: cell-based, Christensenella sp.
Details in all cases: result in words
Strain MNH04863 = tested on: Strain MNH04863
Experimental: (§1) Antibiotic susceptibility testing was performed separately for each strain using the disk diffusion test.

Strain MNH05119 = tested on: Strain MNH05119
Experimental: as §1

Strain MNH06163 = tested on: Strain MNH06163
Experimental: as §1

CN(C)[C@@H]1C(O)=C(C(N)=O)C(=O)[C@@]2(O)C(O)=C3C(=O)c4c(O)cccc4[C@@](C)(O)[C@H]3C[C@@H]12 [Tetracycline (TET), Tetracycline]
sensitive: susceptibility of strain MNH04863 to the antibiotic (Strain MNH04863) | susceptibility of strain MNH05119 to the antibiotic (Strain MNH05119) | susceptibility of strain MNH06163 to the antibiotic (Strain MNH06163)
